This note sets out measurements from patent publication US5891467A, “Method for utilizing neutral lipids to modify in vivo release from multivesicular liposomes” (priority 1997, dated 1999).

This data set can be described thus: in vivo. The conditions noted are these: dog, csf, 5 mg.

As for `CN1CC[C@]23c4c5ccc(O)c4O[C@H]2[C@@H](O)C=C[C@H]3[C@H]1C5` [unencapsulated morphine, morphine], the MRT – broadly, a mean duration of stay, worked out from the concentration-time curve – came to 1.6 h.
